Plain letter strings leave the end groups untold.
Assay: general procedure: Fmoc solid-phase peptide synthesis; HBTU / Oxyma Pure
Conditions: whole synthesis, 214 nm, scale of the general procedure 0.1 mmol

Substance	final HPLC purity
CNPEDLSQKE(pY)SDI I NTQE MYNDDLI HF	> 85%
CNPEDLSQKEYSDIINTQEMYNDDLIHF	> 90%
Dansyl )-NN G-NGYEνPTYKFFE	> 90%
Dansyl-NNG-NGYENPTYKφFE	> 90%
Dansyl-NNG-NGYεNPTYKFFE	> 90%
Dansyl-NNG-NGψENPTYKFFE	> 90%
Dansyl-NNG-NγYENPTYKFFE	> 90%
NGYENPTYKFFE	> 95%
TA MRA-NNG-NGYENPTYKFFE	> 95%
dansyl-NN G-NGFENPTYKFFE	> 95%
dansyl-NN G-NGYENATYKFFE	> 95%
dansyl-NN G-NGYENGTYKFFE	> 95%
dansyl-NN G-NGYENPTFKFFE	> 95%
dansyl-NN G-NGYENPTYAFFE	> 95%
dansyl-NN G-NGYENPTYGFFE	> 95%
dansyl-NN G-NGYENPTYKAFE	> 95%
dansyl-NN G-NGYENPTYKFAE	> 95%
dansyl-NN G-NGYENPTYKFFE	> 95%
dansyl-NN G-NGYENPTYKFGE	> 95%
dansyl-NN G-NGYENPTYKFNal1E	> 95%
dansyl-NN G-NGYENPTYKGFE	> 95%
dansyl-NN G-NGYENPTYKNal1FE	> 95%
dansyl-NN G-NGYENPTpYKFFE	> 95%

From paper PMC8291497 (ACS Chemical Biology, 2021)
